Reference: PubChem BioAssay AID504774 (Drosophila RNAi Screening Center, 2011)

Aim: 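Fly genes whose loss alters survival after alkylation damage to DNA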 (primary screen)
System: Drosophila Kc167 cells
Reagents: long dsRNA against Drosophila genes, about 0.25 µg dsRNA per well
Time to read-out: about 6 days: 3 days knock-down, then 3 days with or without MMS
Challenge: methyl methanesulphonate 0.004% (w/v) for 3 days after knock-down
Measured: 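ATP-dependent luminescence as a measure of live cells in MMS-exposed wells, quantile normalised within each plate, with replicate values also given as a mean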
Reading the numbers: mean viability with MMS: higher = more surviving cells after MMS
The screen tested about 23,000 reagents; shown is an unselected part of those with a known target gene and a result. 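Values are quantile-normalised luminescence on an arbitrary scale; higher means more cells surviving MMS.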 Reagents against one gene are numbered here. Names joined by + are all predicted targets of the reagent. Further read-outs or replicates are left out here. Reagent sequences are not shown.

For CG7430, how do the results read?
mean viability with MMS: 3.47e6

With CG33627, what does the deposit list?
mean viability with MMS: 3.73e6

What is on record for Fie (Fire exit)?
mean viability with MMS: 3.54e6

With ltl (larval translucida) #1, how do the results read?
mean viability with MMS: 3.65e6

For ltl (larval translucida) #2, what was measured?
mean viability with MMS: 3.53e6

With CG15278, what does the deposit list?
mean viability with MMS: 3.64e6

Which result is listed for Cpr64Aa (Cuticular protein 64Aa)?
mean viability with MMS: 3.39e6

With CG15263, what was measured?
mean viability with MMS: 3.57e6

With CG18130, how do the results read?
mean viability with MMS: 3.43e6

With CG33282, what does the deposit list?
mean viability with MMS: 3.60e6

What did the screen give for CG11384?
mean viability with MMS: 3.43e6

With CG5828, what was measured?
mean viability with MMS: 3.34e6

For CG17097, what does the deposit list?
mean viability with MMS: 3.27e6

With alphaTub67C (alpha-Tubulin at 67C), how do the results read?
mean viability with MMS: 3.39e6

For Ptx1, what does the deposit list?
mean viability with MMS: 3.45e6

What did the screen give for CG9919?
mean viability with MMS: 3.46e6

With RNASEK (Ribonuclease kappa), how do the results read?
mean viability with MMS: 3.49e6

What did the screen give for CycY (Cyclin Y)?
mean viability with MMS: 3.81e6

How did the screen score CG32371?
mean viability with MMS: 3.73e6

With CG15628 #1, how do the results read?
mean viability with MMS: 2.92e6

What did the screen give for CG15628 #2?
mean viability with MMS: 3.52e6

What is on record for Npc1b (Niemann-Pick type C-1b)?
mean viability with MMS: 3.46e6

With mav (maverick), what was measured?
mean viability with MMS: 3.59e6

What is on record for CR40450 + CG32767?
mean viability with MMS: 3.42e6

What is on record for Acp26Ab (Accessory gland protein 26Ab)?
mean viability with MMS: 3.66e6

Which result is listed for Fmo-2 (Flavin-containing monooxygenase 2)?
mean viability with MMS: 3.56e6

4 of these entries in another layout.
Ptx1
- mean viability with MMS: 3.45e6

CG9919
- mean viability with MMS: 3.46e6

RNASEK (Ribonuclease kappa)
- mean viability with MMS: 3.49e6

CycY (Cyclin Y)
- mean viability with MMS: 3.81e6

Continued:
What did the screen give for shop (shopper)?
mean viability with MMS: 3.71e6

For CG33288, what does the deposit list?
mean viability with MMS: 3.53e6

For sprt (sprite), how do the results read?
mean viability with MMS: 3.67e6

How did the screen score Spn38F (Serpin 38F)?
mean viability with MMS: 3.60e6

What is on record for CG34452?
mean viability with MMS: 3.54e6

Which result is listed for CG9777?
mean viability with MMS: 3.45e6

With Tango11 (Transport and Golgi organization 11) #1, how do the results read?
mean viability with MMS: 3.54e6

With Tango11 (Transport and Golgi organization 11) #2, what does the deposit list?
mean viability with MMS: 3.36e6

How did the screen score tpr (tracheal-prostasin)?
mean viability with MMS: 3.57e6

For CG13299, what does the deposit list?
mean viability with MMS: 3.47e6

What is on record for EMC6 (ER membrane protein complex subunit 6)?
mean viability with MMS: 3.60e6

What did the screen give for Vha68-2 (Vacuolar H[+] ATPase 68 kDa subunit 2)?
mean viability with MMS: 3.49e6

How did the screen score CG32633?
mean viability with MMS: 3.58e6

What is on record for CG31248?
mean viability with MMS: 3.56e6

What did the screen give for CG14362?
mean viability with MMS: 3.58e6

What did the screen give for dati (datilografo) #1?
mean viability with MMS: 3.55e6

With dati (datilografo) #2, how do the results read?
mean viability with MMS: 3.61e6

What is on record for CG43980 #1?
mean viability with MMS: 3.49e6

For CG43980 #2, how do the results read?
mean viability with MMS: 3.83e6
